Data taken from patent US9874558B2, “Immunoassay method less affected by impurities” (Konica Minolta, Inc., priority 2012, dated 2018).

What follows are molecules tested on Trichosanthes japonica Lectin (TJA-II) (assay: SPFS sandwich immunoassay of PSA with labeled TJA-II, added competing sugar chain compound, S/N ratio). Conditions: PSA 1.0 ng/mL in commercially available serum, sugar chain compound 0.1% by weight in PBS for 10 minutes, none: S/N 2.

In order of falling S/N:
1. CC(C)CCCC(C)C1CCC2C3CC=C4CC(OC(=O)NCCOC5OC(C)[C@@H](O)C(O)[C@H]5O)CC[C@]4(C)C3CC[C@]12C (stereo partly shown) [Fuc-2-Chol]  4
2. galactosyl diglyceride  4
3. C[C@@H]1OC([C@]2(O)[C@H](O[C@H]3[C@H](O)[C@@H](O)C(O)O[C@@H]3CO)O[C@H](CO)[C@H](O)[C@@H]2O)[C@@H](O)[C@H](O)[C@@H]1O (stereo partly drawn) [2′-fucosyl-D-lactose]  3
4. CCCCCCCCCCCCCCCCCCCCCCCCCC(=O)N[C@@H](CO[C@H]1O[C@H](CO)[C@H](O)[C@H](O)[C@H]1O)[C@H](O)[C@H](O)CCCCCCCCCCCCCC [Galactosylceramide, α-galactosylceramide]  3
